Here are results for 2 compounds from article PMC7178511, “Antimicrobial Activity and DNA/BSA Binding Affinity of Polynuclear Silver(I) Complexes with 1,2-Bis(4-pyridyl)ethane/ethene as Bridging Ligands” (Bioinorganic Chemistry and Applications, 2020).

The subject of this series is C. parapsilosis ATCC 22019. The series can be described thus: Broth microdilution MIC, C. parapsilosis. The note with it: C. parapsilosis versus MRC-5 cells. The series is classed as cell-based, Candida parapsilosis. The procedure: Stock solutions of bpa, bpe, and silver(I) complexes 1–3 were prepared fresh in DMSO (50 mg/mL) and kept at 4°C prior to use. Susceptibility testing of Candida spp. (C. albicans ATCC 10231, C. krusei ATCC 6258, C. parapsilosis ATCC 22019, and C. glabrata ATCC 2001) was performed according to CLSI broth microdilution guidelines (Clinical and Laboratory Standards Institute, Reference Method for Broth Dilution Antifungal Susceptibility Testing of Yeasts—Third Edition: Approved Standard M27-A3; Clinical and Laboratory Standards Institute, Reference Method for Broth Dilution Antifungal Susceptibility Testing of Yeasts: Fourth Informational Supplement M27-S4), in RPMI 1640 medium (Roswell Park Memorial Institute medium) containing 2% glucose (w/v). The highest tested concentration was 500 μg/mL, and the inocula were 1^·\10^5 colony forming units (cfu)/mL.
For orientation: Broth dilution looks for growth in wells or tubes with falling amounts of substance.

In the case of `O=[N+]([O-])[O-].[Ag+].c1cc(CCc2ccncc2)ccn1` [Complex 1, {[Ag(bpa)]NO3}n], the selectivity index is on record as 12.9.

In the case of `C(=C\c1ccncc1)/c1ccncc1.O=S(=O)([O-])C(F)(F)F.[Ag+]` [Complex 3, {[Ag(bpe)]CF3SO3}n], the selectivity index is recorded as 12.9.
